Experimental data from US20170306017A1.
No constants are given. Whether binding was seen depends on the method and setting. Some binding calls cover weakened binding; strength is not graded here. Where a sequence is shown, tags or fusion partners need not be part of it.

Chains of the proteins cited; added tags and fusions are not shown. Residues count along the entry.
UniProt O43157, residues 20-2135: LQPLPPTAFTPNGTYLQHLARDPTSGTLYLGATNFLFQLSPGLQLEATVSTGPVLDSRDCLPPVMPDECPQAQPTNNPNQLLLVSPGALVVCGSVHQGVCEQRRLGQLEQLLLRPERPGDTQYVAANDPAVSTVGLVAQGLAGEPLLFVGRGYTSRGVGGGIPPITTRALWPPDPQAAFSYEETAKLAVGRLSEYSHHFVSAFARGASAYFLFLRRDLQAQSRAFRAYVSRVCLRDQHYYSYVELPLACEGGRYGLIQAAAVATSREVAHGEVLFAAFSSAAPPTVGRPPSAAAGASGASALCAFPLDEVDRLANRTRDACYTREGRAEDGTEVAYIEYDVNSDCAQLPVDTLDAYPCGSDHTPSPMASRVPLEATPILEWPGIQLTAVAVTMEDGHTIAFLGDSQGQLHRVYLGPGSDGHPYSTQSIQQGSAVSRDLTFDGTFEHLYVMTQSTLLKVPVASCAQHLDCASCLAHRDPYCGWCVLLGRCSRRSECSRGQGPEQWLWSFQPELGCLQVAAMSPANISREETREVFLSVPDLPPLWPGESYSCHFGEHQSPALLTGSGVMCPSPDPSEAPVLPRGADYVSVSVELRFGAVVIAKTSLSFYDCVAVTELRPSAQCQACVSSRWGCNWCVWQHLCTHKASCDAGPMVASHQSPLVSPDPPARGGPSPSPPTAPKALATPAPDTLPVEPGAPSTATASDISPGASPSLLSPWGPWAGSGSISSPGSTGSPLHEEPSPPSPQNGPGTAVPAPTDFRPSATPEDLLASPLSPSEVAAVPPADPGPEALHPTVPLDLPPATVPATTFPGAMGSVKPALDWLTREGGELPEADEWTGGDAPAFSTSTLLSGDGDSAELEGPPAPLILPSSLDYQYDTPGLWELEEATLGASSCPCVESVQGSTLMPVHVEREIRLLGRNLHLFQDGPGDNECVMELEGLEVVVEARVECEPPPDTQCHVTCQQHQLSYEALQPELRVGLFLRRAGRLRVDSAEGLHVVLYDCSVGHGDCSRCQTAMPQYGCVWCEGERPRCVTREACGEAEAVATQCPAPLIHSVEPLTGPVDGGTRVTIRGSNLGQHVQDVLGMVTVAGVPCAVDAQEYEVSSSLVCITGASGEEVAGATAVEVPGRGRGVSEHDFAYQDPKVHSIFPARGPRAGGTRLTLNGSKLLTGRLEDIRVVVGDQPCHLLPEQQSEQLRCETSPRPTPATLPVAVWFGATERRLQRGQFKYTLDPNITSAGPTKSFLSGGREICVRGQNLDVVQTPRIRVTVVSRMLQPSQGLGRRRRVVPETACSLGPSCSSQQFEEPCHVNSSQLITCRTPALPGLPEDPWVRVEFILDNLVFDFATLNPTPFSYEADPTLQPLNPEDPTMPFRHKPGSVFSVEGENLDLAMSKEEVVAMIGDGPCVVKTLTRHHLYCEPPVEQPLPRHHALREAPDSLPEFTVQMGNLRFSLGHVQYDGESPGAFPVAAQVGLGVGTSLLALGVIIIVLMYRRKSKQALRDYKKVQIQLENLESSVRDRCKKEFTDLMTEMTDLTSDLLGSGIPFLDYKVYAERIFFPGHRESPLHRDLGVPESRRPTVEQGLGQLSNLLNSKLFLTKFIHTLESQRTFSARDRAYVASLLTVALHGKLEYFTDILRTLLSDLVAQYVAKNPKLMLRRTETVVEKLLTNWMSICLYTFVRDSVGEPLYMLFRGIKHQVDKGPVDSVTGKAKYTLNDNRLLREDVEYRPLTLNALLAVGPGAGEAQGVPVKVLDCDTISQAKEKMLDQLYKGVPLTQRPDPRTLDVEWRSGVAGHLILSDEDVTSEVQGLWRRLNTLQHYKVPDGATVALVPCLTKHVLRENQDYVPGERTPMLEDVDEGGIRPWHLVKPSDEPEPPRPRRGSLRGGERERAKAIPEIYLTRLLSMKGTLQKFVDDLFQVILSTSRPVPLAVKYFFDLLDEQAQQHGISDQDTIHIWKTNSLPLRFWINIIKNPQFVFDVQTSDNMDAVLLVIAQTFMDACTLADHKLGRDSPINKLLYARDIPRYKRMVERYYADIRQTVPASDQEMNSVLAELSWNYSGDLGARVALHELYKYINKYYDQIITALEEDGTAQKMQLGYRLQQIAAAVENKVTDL

How the values were obtained:
[1] = target: Plexin B1 on the cell surface of a stable 293 cell line (293/Plexin) (UniProt O43157); assay: flow cytometry on 293/Plexin cells; bound CD100-His detected with biotinylated rabbit anti-His and streptavidin-APC
[2] = target: Plexin B1 on the cell surface of a stable 293 cell line (293/Plexin) (UniProt O43157); assay: flow cytometry on 293/Plexin cells (blocking assay of FIG. 1); bound CD100-His detected with biotinylated anti-His and streptavidin-APC

binding [1]: binds
binding [2]: binds
B1: mouse CD100-His (the extracellular domain of mouse CD100 with a C-terminal 6X his tag) (ligand)
chain: FAPVPRLTWEHGEVGLVQFHKPGIFNYSALLMSEDKDTLYVGAREAVFAVNALNISEKQHEVYWKVSEDKKSKCAEKGKSKQTECLNYIRVLQPLSSTSLYVCGTNAFQPTCDHLNLTSFKFLGKSEDGKGRCPFDPAHSYTSVMVGGELYSGTSYNFLGSEPIISRNSSHSPLRTEYAIPWLNEPSFVFADVIQKSPDGPEGEDDKVYFFFTEVSVEYEFVFKLMIPRVARVCKGDQGGLRTLQKKWTSFLKARLICSKPDSGLVFNILQDVFVLRAPGLKEPVFYAVFTPQLNNVGLSAVCAYTLATVEAVFSRGKYMQSATVEQSHTKWVRYNGPVPTPRPGACIDSEARAANYTSSLNLPDKTLQFVKDHPLMDDSVTPIDNRPKLIKKDVNYTQIVVDRTQALDGTFYDVMFISTDRGALHKAVILTKEVHVIEETQLFRDSEPVLTLLLSSKKGRKFVYAGSNSGVVQAPLAFCEKHGSCEDCVLARDPYCAWSPAIKACVTLHQEEASSRGWIQDMSGDTSSCLDKSKESFNQHFFKHGGTAELKCFQKSNLARVVWKFQNGELKAASPKYGFVGRKHLLIFNLSDGDSGVYQCLSEERVRNKTVSQLLAKHVLEVKMVPRTPPSPTSEDAQTEGSKITSKMPVASTQGSSPPTPALWATSPRAATLPPKSSSGTSCEPKMVINTVPQLHSEKTVYLKSSDNRHHHHHH
